These are yes or no findings as the source states them, for the method shown. Binding seen in cells or lysates may run through a third protein. Some entries that bind do so weakly or less than the wild type.
Target: EGF receptor (EGFR), endogenous (human (endogenous in PC-3 and DU-145)) (UniProt P00533)
Assay: co-IP; endogenous co-IP from PC-3 (legend: PC-3 and DU-145) cell lysate; overnight with target antibody at 4 °C, protein A agarose beads, immunoblot; rabbit IgG as negative control

binding: binds
Substance: Neuropilin 1 (NRP1), endogenous (from UniProt O14786 22-923) (receptor)

Source: paper PMC9958327
